Drawing on the supplement of paper PMC4840960, this text covers total nuclei for 68 compounds.

Molecules are shown by their SMILES. ± gives the standard deviation of the averaged measurements. The list shows a part of the results. Baselines shift from plate to plate; read single values as rough. Some results are limits rather than exact numbers.

In the assay the test system is E18 rat cortical neuron-glia co-culture. The assay is described as follows: total nuclei (DAPI) / Olig2+ nuclei (ratio); higher = more depletion of OPC/OL lineage cells. The following applies: treatment time: 8 days (DIV5-DIV13).

In the case of `CO/N=C(\C(=O)N[C@@H]1C(=O)N2C(C(=O)O)=C(COC(C)=O)CS[C@H]12)c1csc(N)n1` [Cefotaxime], the total nuclei is, setting by setting: (1 µM) 3.67; (5 µM) 3.5.
The corresponding values for `CC(=O)Nc1ccc(CC(=O)O)cc1` [Actarit] are 3.35 and 3.7.
In the case of `Clc1ccc(COC(Cn2ccnc2)c2ccc(Cl)cc2Cl)c(Cl)c1` (stereo not drawn) [Miconazole], the total nuclei (1 µM) was 5.
Consider `OC[C@H]1O[C@@H](Oc2cc(O)cc(/C=C/c3ccc(O)cc3)c2)[C@H](O)[C@@H](O)[C@@H]1O` [Polydatin], for which the total nuclei by setting is: (1 µM) 3.42; (5 µM) 5.1.
As to `C=CCc1ccc(O)c(-c2ccc(O)c(CC=C)c2)c1` [Honokiol], the total nuclei is 4.37 (1 µM) and over 40 (5 µM).
The corresponding values for `C=CC1=C(C(=O)O)N2C(=O)[C@@H](NC(=O)/C(=N\OCC(=O)O)c3csc(N)n3)[C@H]2SC1` [Cefixime] are 2.81 and 3.6.
Turning to `CN1[C@@H]2CC[C@H]1C[C@@H](OC(c1ccccc1)c1ccccc1)C2` [Benzatropine], the total nuclei (1 µM) stood at 11.3.
`COc1ccc2[nH]c([S@@+]([O-])Cc3ncc(C)c(OC)c3C)nc2c1` [Esomeprazole]: the total nuclei runs as follows: (1 µM) 3.09; (5 µM) 3.3.
Take `CC/C(=C(\c1ccccc1)c1ccc(OCCN(C)C)cc1)c1ccccc1` [Tamoxifen]: under “1 µM”, the total nuclei was determined as 3.1.
As for `CN(C)CCCN1c2ccccc2Sc2ccc(Cl)cc21` [Chlorpromazine], the total nuclei is 2.89 (1 µM) and 5.3 (5 µM).
The corresponding values for `COc1cc(C[C@@H](CO)[C@H](CO)Cc2ccc(O)c(OC)c2)ccc1O` [Secoisolariciresinol] are 2.64 and 2.7.
The corresponding values for `Cc1onc(-c2ccccc2)c1C(=O)N[C@@H]1C(=O)N2[C@@H]1SC(C)(C)[C@@H]2C(=O)O` [Oxacillin] are 2.23 and 2.4.
`Cc1ccc(C)c(OCCCC(C)(C)C(=O)O)c1` [Gemfibrozil]: where the note is “1 µM”, the total nuclei is 4.22.
As to `CCOC(=O)C1=C(C)NC(C)=C(C(=O)OCC)C1c1ccccc1/C=C/C(=O)OC(C)(C)C` [Lacidipine], the total nuclei (1 µM) is 3.67.
Regarding `CNC(=C[N+](=O)[O-])NCCSCc1ccc(CN(C)C)o1` [Ranitidine], the total nuclei was 3.3 (1 µM) and 4.2 (5 µM).
The corresponding values for `CN1CC(=O)N2[C@H](c3ccc4c(c3)OCO4)c3[nH]c4ccccc4c3C[C@@H]2C1=O` [Tadalafil] are 4.53 and 3.8.
On to `c1ccc(CC2=NCCN2)cc1` [Tolazoline], for which the total nuclei (1 µM) was 4.31.
For the compound `CC1(C)O[C@@H]2C[C@H]3[C@@H]4CCC5=CC(=O)C=C[C@]5(C)[C@@]4(F)[C@@H](O)C[C@]3(C)[C@]2(C(=O)CO)O1` [Azmacort], the total nuclei was 3.67 (1 µM) and over 40 (5 µM).
The corresponding values for `CC(=O)OCC(=O)[C@@]1(O)CC[C@H]2[C@@H]3CCC4=CC(=O)C=C[C@]4(C)[C@H]3[C@@H](O)C[C@@]21C` [Prednisolone acetate] are 3.78 and 4.3.
In the case of `Clc1ccc(COC(Cn2ccnc2)c2ccc(Cl)cc2Cl)cc1` (stereo not drawn) [Econazole], the total nuclei (1 µM) was determined as 8.87.
Regarding `CC(C)C[C@H](NC(=O)[C@@H](O)[C@H](N)Cc1ccccc1)C(=O)O` [Ubenimex], the total nuclei was 2.55 (1 µM) and 2.7 (5 µM).
The corresponding values for `CN(C)CCC=C1c2ccccc2COc2ccccc21` [Doxepin] are 3.25 ± 0.25 and 4.1 ± 0.99.
The corresponding values for `CCc1oc2ccccc2c1C(=O)c1cc(Br)c(O)c(Br)c1` [Benzbromarone] are 2.76 and 2.6.
The corresponding values for `COc1c(N2CCNC(C)C2)c(F)cc2c(=O)c(C(=O)O)cn(C3CC3)c12` (stereo not drawn) [Gatifloxacin] are 3.64 and 3.7.
Regarding `Cc1ccc(S(=O)(=O)NC(=O)NN2CCCCCC2)cc1` [Tolazamide], the total nuclei was determined as 2.76 (1 µM) and 2.8 (5 µM).
Regarding `NC(Cc1cc(I)c(Oc2cc(I)c(O)c(I)c2)c(I)c1)C(=O)O` (stereo not drawn) [Thyroxine], the total nuclei (1 µM) worked out at 4.2.
Same read-out and setting: the value for `CSc1ccc2c(c1)N(CCC1CCCCN1C)c1ccccc1S2` (stereo not drawn) [Thioridazine] was 3.5.
Turning to `C[C@]12C=CC(=O)C=C1CC[C@@H]1[C@@H]2[C@@H](O)C[C@@]2(C)[C@H]1CC[C@]2(O)C(=O)COC(=O)CCC(=O)O` [Prednisolone hemisuccinate], the total nuclei stood at 3.02 (1 µM) and 3 (5 µM).
As for `CC(=O)Nc1nnc(S(N)(=O)=O)s1` [Acetazolamide], the total nuclei is, setting by setting: (1 µM) 4.11; (5 µM) 4.1.
The corresponding values for `NS(=O)(=O)Cc1noc2ccccc12` [Zonisamide] are 2.7 and 3.2.
For `COc1cccc2c1C(=O)c1c(O)c3c(c(O)c1C2=O)C[C@@](O)(C(=O)CO)C[C@@H]3O[C@H]1C[C@H](N)[C@H](O)[C@H](C)O1` [Adriamycin], the total nuclei (1 µM) is 10.3 ± 12.
Still for that read-out and setting: the value for `COc1cc([C@@H]2c3cc4c(cc3[C@@H](O[C@@H]3O[C@@H]5CO[C@@H](C)O[C@H]5[C@H](O)[C@H]3O)[C@H]3COC(=O)[C@H]23)OCO4)cc(OC)c1O` [Etoposide] was over 40; that for `Cc1sc(N)c(C(=O)c2cccc(C(F)(F)F)c2)c1C` was 3.62.
As to `C[C@]12CCC(=O)C=C1CC[C@@H]1[C@@H]2[C@@H](O)C[C@@]2(C)[C@H]1CC[C@]2(O)C(=O)CO` [Hydrocortisone], the total nuclei was 3.52 ± 0.11 (1 µM) and 4.1 ± 0.14 (5 µM).
The corresponding values for `CC(C)c1ccc2oc3nc(N)c(C(=O)O)cc3c(=O)c2c1` [Amlexanox] are 2.92 and 3.2.
The corresponding values for `COc1ccc(-c2oc3c(CC=C(C)C)c(O[C@@H]4O[C@H](CO)[C@@H](O)[C@H](O)[C@H]4O)cc(O)c3c(=O)c2O[C@@H]2O[C@@H](C)[C@H](O)[C@@H](O)[C@H]2O)cc1` [Icariin] are 2.99 and 3.2.
As to `Oc1c(Cl)cc(Cl)c(Cl)c1Cc1c(O)c(Cl)cc(Cl)c1Cl` [Hexachlorophene], where the note is “1 µM”, the total nuclei was over 40.
For `CC(N)C12CC3CC(CC(C3)C1)C2` (stereo not drawn) [Rimantadine], the total nuclei by setting is: (1 µM) 2.79; (5 µM) 6.5.
The corresponding values for `N[C@@H](C(=O)N[C@@H]1C(=O)N2C(C(=O)O)=C(Cl)CS[C@H]12)c1ccccc1` [Cefaclor] are 3.01 and 2.8.
The corresponding values for `CC1(C)O[C@@H]2[C@@H](CO[C@@]3(COS(N)(=O)=O)OC(C)(C)O[C@@H]23)O1` [Topiramate] are 2.97 and 2.9.
The corresponding values for `Cc1noc(NS(=O)(=O)c2ccc(N)cc2)c1C` [Sulfisoxazole] are 2.65 and 2.8.
Take `CCc1cccc2c3c([nH]c12)C(CC)(CC(=O)O)OCC3` (stereo not drawn) [Etodolac]: the total nuclei (1 µM) stood at 3.88 and the total nuclei (5 µM) came to 4.8.
The corresponding values for `O=c1c(O[C@@H]2O[C@H](CO)[C@@H](O)[C@H](O)[C@H]2O)c(-c2ccc(O)c(O)c2)oc2cc(O)cc(O)c12` [Isoquercitrin] are 3.49 and 3.4.
The corresponding values for `CCCCN1CCCC1CNC(=O)c1cc(C#N)c2ccccc2c1OC` (stereo not drawn) [Nafadotride] are 3.12 and 3.2.
On to `CN1CCC[C@H]1c1cccnc1` [Nicotine], for which the total nuclei reads like this: (1 µM) 3.01; (5 µM) 3.
`CNCCCN1c2ccccc2CCc2ccccc21` [Desipramine]: the total nuclei by setting is: (1 µM) 2.53; (5 µM) 3.
The corresponding values for `Cc1c(C(=O)NN2CCCCC2)nn(-c2ccc(Cl)cc2Cl)c1-c1ccc(I)cc1` are 3.39 and over 40.
For the compound `COCCCC/C(=N\OCCN)c1ccc(C(F)(F)F)cc1` [Fluvoxamine], the total nuclei was 3.4 (1 µM) and 3.8 (5 µM).
Consider `O=C(CCCN1CC=C(n2c(=O)[nH]c3ccccc32)CC1)c1ccc(F)cc1` [Droperidol], for which the total nuclei is, setting by setting: (1 µM) 2.62; (5 µM) 2.7.
On to `C#C[C@]1(O)CC[C@H]2[C@@H]3CCC4=CC(=O)CC[C@@H]4[C@H]3CC[C@@]21C` [Norethindrone], for which the total nuclei reads like this: (1 µM) 2.82; (5 µM) 3.
The corresponding values for `COc1ccc(C(=O)NCc2ccc(OCCN(C)C)cc2)cc1OC` [Itopride] are 2.77 and 2.7.
The corresponding values for `CCOC(=O)OC(C)OC1=C(C(=O)Nc2ccccn2)N(C)S(=O)(=O)c2ccccc21` (stereo not drawn) [Ampiroxicam] are 3.78 and 4.7.
The corresponding values for `CC(=O)OCC[N+](C)(C)C` [Acetylcholine] are 4.25 and 4.1.
As to `Nc1ncnc2c1ncn2[C@@H]1O[C@H](CO)[C@@H](O)[C@@H]1O` [Vidarabine], the total nuclei runs as follows: (1 µM) 3.1; (5 µM) 8.7.
With `CC(C)[N+]1(C)[C@@H]2CC[C@H]1C[C@@H](OC(=O)C(CO)c1ccccc1)C2` (stereo partly drawn) [Ipratropium], the total nuclei stood at 3.65 (1 µM) and 2.8 (5 µM).
The corresponding values for `O=C1[C@H]2CCCC[C@H]2C(=O)N1CCCCN1CCN(c2nsc3ccccc23)CC1` [Perospirone] are 4.05 and 5.
Regarding `COc1cc(Cc2cnc(N)nc2N)cc(OC)c1OC` [Trimethoprim], the total nuclei was 3.98 (1 µM) and 4.1 (5 µM).
For the compound `CN(C)CCOc1ccc(/C(=C(/CCCl)c2ccccc2)c2ccccc2)cc1` [Toremifene], the total nuclei is 3.15 (1 µM) and over 40 (5 µM).
With `NS(=O)(=O)c1cc(C2(O)NC(=O)c3ccccc32)ccc1Cl` (stereo not drawn) [Chlorthalidone], the total nuclei (1 µM) amounted to 4.49 and the total nuclei (5 µM) came out at 4.6.
The corresponding values for `CC(c1cc2ccccc2s1)N(O)C(N)=O` (stereo not drawn) [Zileuton] are 4.39 and 3.9.
`CC(COc1ccccc1)N(CCCl)Cc1ccccc1` (stereo not drawn) [Phenoxybenzamine]: the total nuclei reads like this: (1 µM) 2.62; (5 µM) 2.7.
The corresponding values for `COc1cc(NC(C)CCCN)c2ncccc2c1` (stereo not drawn) [Primaquine] are 2.5 and 2.4.
The corresponding values for `C[C@]12C=CC(=O)C=C1CC[C@@H]1[C@@H]2[C@@H](O)C[C@@]2(C)[C@H]1CC[C@]2(O)C(=O)CO` [Prednisolone] are 3.9 and 4.2.
The corresponding values for `O=C(O)CCCc1ccccc1` [4-Phenylbutyric acid] are 3.9 and 3.8.
For `CC(C)(C)NC[C@H](O)COc1nsnc1N1CCOCC1` [Timolol], the total nuclei was 2.73 (1 µM) and 2.7 (5 µM).
The corresponding values for `CCC(=O)O[C@@H]1CC(=O)O[C@H](C)C/C=C/C=C/[C@H](O)[C@H](C)C[C@H](CC=O)[C@H](O[C@@H]2O[C@H](C)[C@@H](O[C@H]3C[C@@](C)(O)[C@@H](OC(=O)CC)[C@H](C)O3)[C@H](N(C)C)[C@H]2O)[C@H]1OC` [Midecamycin] are 4.74 and 4.2.
The corresponding values for `CCOC(=O)CCC(=O)O[C@H]1[C@H](O[C@@H]2[C@@H](C)[C@H](O[C@H]3C[C@@](C)(OC)[C@@H](O)[C@H](C)O3)[C@@H](C)C(=O)O[C@H](CC)[C@@](C)(O)[C@H](O)[C@@H](C)C(=O)[C@H](C)C[C@@]2(C)O)O[C@H](C)C[C@@H]1N(C)C` [Erythromycin Ethylsuccinate] are 2.85 and 2.8.
As for `C[C@@H]1C[C@H]2[C@@H]3CCC4=CC(=O)C=C[C@]4(C)[C@@]3(F)[C@@H](O)C[C@]2(C)[C@H]1C(=O)CO` [Desoximetasone], the total nuclei is 3.02 (1 µM) and 2.9 (5 µM).
